log2 fold change data for 16 targets are collected here from the supplement of paper PMC10849652.

The chains behind the UniProt entries cited, without tags or fusion partners. Where a name states a change or a piece, a line headed by the entry shows the natural chain unless it says otherwise.
UniProt Q9H910: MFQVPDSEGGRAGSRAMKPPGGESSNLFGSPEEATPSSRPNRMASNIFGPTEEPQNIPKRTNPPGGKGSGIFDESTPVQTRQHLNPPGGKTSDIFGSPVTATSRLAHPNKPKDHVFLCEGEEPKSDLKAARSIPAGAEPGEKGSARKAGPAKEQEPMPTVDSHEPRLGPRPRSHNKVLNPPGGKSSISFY
UniProt Q9NVH2, whole entry, looked up: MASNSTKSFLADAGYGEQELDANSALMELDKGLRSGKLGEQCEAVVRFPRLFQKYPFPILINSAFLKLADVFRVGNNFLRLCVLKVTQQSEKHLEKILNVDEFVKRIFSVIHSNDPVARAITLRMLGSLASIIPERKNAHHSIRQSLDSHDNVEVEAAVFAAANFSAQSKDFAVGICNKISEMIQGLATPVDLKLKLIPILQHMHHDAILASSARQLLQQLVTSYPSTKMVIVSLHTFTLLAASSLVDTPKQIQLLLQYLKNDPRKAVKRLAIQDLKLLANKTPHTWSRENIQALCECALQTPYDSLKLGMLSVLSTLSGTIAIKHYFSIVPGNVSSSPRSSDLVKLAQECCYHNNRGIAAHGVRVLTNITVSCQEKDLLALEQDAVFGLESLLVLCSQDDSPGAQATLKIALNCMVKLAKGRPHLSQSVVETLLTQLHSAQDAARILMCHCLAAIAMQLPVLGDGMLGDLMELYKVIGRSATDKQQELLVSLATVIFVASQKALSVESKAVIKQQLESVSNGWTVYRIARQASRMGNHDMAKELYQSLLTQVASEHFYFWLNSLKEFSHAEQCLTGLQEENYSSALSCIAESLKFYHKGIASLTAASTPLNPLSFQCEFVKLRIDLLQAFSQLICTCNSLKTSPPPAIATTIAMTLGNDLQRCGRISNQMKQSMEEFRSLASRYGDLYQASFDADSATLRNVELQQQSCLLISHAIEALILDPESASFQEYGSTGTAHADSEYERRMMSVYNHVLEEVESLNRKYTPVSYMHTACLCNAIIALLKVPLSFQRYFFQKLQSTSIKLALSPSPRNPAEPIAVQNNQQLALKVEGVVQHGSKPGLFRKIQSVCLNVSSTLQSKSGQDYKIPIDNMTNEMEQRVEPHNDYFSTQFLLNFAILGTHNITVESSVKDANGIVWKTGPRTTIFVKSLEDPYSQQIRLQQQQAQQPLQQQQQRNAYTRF
UniProt P23677, whole entry, looked up: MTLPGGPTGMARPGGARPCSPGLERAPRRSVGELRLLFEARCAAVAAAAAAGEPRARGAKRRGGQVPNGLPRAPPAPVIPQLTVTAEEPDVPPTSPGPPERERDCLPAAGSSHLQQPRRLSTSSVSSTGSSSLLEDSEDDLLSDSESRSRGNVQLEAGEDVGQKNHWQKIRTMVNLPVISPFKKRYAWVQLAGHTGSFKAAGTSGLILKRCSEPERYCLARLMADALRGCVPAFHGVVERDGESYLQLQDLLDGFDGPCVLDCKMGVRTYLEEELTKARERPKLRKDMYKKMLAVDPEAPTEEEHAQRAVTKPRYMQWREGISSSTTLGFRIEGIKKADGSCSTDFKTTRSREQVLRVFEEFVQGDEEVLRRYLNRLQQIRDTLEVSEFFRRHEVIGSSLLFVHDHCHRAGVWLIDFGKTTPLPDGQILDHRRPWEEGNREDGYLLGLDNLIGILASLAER
UniProt Q96CN7: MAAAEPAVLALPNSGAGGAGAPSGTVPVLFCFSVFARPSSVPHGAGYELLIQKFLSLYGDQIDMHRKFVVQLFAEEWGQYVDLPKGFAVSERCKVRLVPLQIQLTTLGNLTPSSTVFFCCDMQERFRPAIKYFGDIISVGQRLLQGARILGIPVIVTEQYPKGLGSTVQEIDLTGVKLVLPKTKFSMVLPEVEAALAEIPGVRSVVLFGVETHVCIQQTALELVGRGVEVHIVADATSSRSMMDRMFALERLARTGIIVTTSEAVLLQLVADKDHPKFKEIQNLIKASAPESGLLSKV
UniProt Q6P9B9, whole entry, looked up: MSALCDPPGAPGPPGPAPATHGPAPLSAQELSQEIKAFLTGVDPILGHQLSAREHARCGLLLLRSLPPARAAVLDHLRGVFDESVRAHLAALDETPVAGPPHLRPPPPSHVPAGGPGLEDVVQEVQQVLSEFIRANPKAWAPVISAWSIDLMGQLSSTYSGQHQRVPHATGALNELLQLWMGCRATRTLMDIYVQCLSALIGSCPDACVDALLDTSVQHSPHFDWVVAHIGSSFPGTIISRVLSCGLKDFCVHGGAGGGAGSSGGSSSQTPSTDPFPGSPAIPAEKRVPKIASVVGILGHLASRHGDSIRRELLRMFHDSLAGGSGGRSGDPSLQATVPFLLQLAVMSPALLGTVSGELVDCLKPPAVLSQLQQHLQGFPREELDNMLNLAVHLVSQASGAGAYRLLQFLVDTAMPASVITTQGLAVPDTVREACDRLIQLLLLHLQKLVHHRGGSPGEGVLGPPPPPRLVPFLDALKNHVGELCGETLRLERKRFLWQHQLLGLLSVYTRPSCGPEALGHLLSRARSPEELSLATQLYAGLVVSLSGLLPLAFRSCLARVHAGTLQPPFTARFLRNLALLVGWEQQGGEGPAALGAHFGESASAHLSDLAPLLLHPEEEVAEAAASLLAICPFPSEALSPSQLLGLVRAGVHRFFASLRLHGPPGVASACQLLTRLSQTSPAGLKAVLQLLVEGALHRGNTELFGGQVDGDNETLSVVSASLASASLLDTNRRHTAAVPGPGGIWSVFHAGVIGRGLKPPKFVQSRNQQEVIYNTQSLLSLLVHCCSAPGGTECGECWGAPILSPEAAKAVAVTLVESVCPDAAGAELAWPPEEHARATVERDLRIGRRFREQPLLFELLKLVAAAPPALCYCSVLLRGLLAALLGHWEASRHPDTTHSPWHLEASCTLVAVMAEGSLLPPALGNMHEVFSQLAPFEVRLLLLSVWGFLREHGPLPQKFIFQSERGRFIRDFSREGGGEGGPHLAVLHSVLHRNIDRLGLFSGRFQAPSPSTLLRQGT
UniProt O14713: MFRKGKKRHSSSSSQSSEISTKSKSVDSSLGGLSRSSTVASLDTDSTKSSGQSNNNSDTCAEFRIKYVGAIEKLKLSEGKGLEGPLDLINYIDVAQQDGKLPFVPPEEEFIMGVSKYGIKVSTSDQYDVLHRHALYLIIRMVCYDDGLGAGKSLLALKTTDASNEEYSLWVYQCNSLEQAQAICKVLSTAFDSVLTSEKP
UniProt Q13352: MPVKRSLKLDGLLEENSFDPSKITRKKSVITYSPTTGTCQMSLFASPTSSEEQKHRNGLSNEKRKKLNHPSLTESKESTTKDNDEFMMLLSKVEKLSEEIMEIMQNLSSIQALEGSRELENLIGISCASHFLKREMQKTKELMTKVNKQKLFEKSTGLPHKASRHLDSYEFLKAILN
UniProt Q9NV88, whole entry, looked up: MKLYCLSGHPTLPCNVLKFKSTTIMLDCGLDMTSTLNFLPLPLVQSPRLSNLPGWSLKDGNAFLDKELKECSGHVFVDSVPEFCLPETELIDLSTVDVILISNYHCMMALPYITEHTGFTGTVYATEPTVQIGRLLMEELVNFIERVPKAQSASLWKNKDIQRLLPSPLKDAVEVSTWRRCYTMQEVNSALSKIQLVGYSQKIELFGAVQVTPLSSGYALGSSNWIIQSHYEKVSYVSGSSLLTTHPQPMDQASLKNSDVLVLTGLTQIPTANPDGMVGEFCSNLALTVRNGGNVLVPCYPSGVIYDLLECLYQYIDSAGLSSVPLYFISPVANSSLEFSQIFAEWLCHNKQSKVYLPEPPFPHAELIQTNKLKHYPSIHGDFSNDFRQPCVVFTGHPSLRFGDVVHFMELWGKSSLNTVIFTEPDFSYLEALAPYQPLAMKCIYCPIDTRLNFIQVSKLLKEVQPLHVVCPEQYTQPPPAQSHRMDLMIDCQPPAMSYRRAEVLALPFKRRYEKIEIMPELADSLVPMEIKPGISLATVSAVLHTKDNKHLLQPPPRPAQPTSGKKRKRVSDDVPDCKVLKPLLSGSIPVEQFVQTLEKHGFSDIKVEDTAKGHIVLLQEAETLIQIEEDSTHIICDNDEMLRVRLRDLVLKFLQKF
UniProt Q9BUE6: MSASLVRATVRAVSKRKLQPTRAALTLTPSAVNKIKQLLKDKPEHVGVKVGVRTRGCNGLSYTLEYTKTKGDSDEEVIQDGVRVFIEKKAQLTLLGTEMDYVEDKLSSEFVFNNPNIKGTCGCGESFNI
UniProt Q9UK76: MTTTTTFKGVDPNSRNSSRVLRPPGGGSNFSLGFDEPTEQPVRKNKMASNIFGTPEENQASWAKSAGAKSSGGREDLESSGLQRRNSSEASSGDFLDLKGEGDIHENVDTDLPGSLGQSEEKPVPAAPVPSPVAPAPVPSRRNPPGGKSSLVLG
UniProt O75449: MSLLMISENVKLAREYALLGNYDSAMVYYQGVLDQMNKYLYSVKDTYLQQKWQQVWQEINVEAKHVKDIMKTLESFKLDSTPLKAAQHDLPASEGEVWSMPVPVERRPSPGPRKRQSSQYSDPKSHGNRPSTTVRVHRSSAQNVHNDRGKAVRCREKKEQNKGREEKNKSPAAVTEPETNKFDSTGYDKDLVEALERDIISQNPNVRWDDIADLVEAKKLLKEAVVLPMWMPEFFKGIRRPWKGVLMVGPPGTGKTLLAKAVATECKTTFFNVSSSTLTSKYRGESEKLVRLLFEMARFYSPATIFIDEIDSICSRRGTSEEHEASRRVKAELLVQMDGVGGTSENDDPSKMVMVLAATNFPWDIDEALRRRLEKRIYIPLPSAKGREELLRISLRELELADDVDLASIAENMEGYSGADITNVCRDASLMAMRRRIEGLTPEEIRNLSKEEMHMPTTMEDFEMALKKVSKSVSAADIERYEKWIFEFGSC
UniProt Q7Z5Y7: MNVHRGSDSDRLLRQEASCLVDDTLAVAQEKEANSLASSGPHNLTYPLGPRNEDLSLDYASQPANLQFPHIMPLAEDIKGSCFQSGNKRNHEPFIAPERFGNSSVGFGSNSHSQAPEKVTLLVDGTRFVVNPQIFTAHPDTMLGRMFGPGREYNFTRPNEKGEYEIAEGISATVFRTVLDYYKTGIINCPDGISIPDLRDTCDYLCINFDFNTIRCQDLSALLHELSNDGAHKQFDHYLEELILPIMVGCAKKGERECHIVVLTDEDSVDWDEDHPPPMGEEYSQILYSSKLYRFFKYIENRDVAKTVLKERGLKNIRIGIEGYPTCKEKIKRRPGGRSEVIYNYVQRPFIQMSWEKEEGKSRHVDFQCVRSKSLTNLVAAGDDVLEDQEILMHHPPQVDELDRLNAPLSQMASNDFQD

The list shows a part of the results.

Common to all, as to experiment: log2 fold change, soluble protein after heating vs DMSO (PISA); higher = thermal stabilisation; K562 lysate, 10 uM; active = over 0.2 and 3.5 SD of the protein, either way, in both replicates (recomputed)
Compound in one assay: CN1CC[C@H](c2c(O)cc(O)c3c(=O)cc(-c4ccccc4Cl)oc23)[C@H](O)C1 [alvocidib]
In short, it runs like this:
(§1)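 Quantification was by TMTpro 16plex LC-MS/MS with equalised channel sums, applied to the supernatant after 21,000xg for 90 min. Samples were crude K562 extract at 1 mg/mL protein in PBS pH 7.4 with 1 mM MgCl2, treated with 10 μM compound for 30 min, heated for 3 min across 48°C-58°C, pooled and brought to 0.5% NP-40 at 4°C. Values are log-two fold changes in thermal stability relative to solvent controls, from duplicates.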

Compound in another assay: CN1CCc2c(c3ccccc3n2Cc2ccc(C(=O)NO)cc2)C1 [Tubastatin A]
The essentials:
as §1

Compound in assay [1]: CNC(=O)C1=CC=CC=C1NC2=NC(=NC=C2Cl)NC3=C(C=C(C=C3)N4CCOCC4)OC
The essentials:
as §1

Compound in another assay: CNC(=O)c1ccc(Nc2ncc(C(F)(F)F)c(NCc3nccnc3N(C)S(C)(=O)=O)n2)cc1 [defactinib]
In short, it runs like this: as §1

Compound in assay [2]: CNc1nc(-c2ccc3c(N)n[nH]c3c2)cc(N2C[C@@H](C(=O)NC3CCCCC3)CC[C@H]2C)n1
In short, it runs like this: as §1

Compound in another assay: COC(=O)N[C@@H](C)CNc1nccc(-c2cn(C(C)C)nc2-c2cc(Cl)cc(NS(C)(=O)=O)c2F)n1 [encorafenib]
The essentials: as §1

Compound in assay [3]: COC(=O)[C@H](CCSC)NC(=O)C1=C(C=C(C=C1)NC[C@H](CS)N)C2=CC=CC=C2
In short, it runs like this:
as §1

Compound in another assay: COc1cc(Nc2ncc3c(n2)-c2ccc(Cl)cc2C(c2c(F)cccc2OC)=NC3)ccc1C(=O)O [alisertib]
The essentials:
as §1

Compound in assay [4]: COc1cc2nc(-c3cc(F)ccc3O)nc(N[C@@H]3CNC[C@H]3C(C)(C)O)c2cc1OC
In short, it runs like this:
as §1

Compound in a further assay: COc1cc2ncnc(Nc3ccc(F)c(Cl)c3)c2cc1OCCCN1CCOCC1 [gefitinib]
In short, it runs like this: as §1

Consider JPT2 isoform 3 (UniProt Q9H910), for which the log2 fold change was inactive: -0.026 with alvocidib; inactive: 0.044 with Tubastatin A; inactive: -0.021 in assay [1]; inactive: 0.008 with defactinib; inactive: 0.035 in assay [2]; inactive: -0.021 with encorafenib. For the same target, the log2 fold change in assay [3] was inactive: 0.003; in the assay with alisertib, inactive: -0.017; in [4], inactive: 0.011; with gefitinib, inactive: 0.01.

On to INTS7 (UniProt Q9NVH2), for which the log2 fold change was inactive: -0.012 with alvocidib; inactive: 0.008 in the assay with Tubastatin A; inactive: -0.025 in assay [1]; inactive: -0.125 with defactinib; inactive: -0.017 in [2]; inactive: 0.067 with encorafenib. In addition, the log2 fold change in assay [3] is inactive: 0.017; in the assay with alisertib, inactive: -0.022; in [4] it was inactive: -0.018; with gefitinib, inactive: 0.028.

ITPKA (UniProt P23677): the log2 fold change in the assay with alvocidib was inactive: -0.001; in the assay with Tubastatin A, inactive: -0.194; in assay [1] it was inactive: -0.017; in the assay with defactinib it was inactive: 0.017; in [2], inactive: 0.015; in the assay with encorafenib it was inactive: -0.021. The log2 fold change was active: 0.375 in assay [3], inactive: -0.004 with alisertib, inactive: 0 in assay [4] and inactive: 0.011 with gefitinib.

Take KALRN (UniProt O60229): in the assay with alvocidib, the log2 fold change was inactive: -0.109.

For the target IPO5 (UniProt H0Y3V4), the log2 fold change is inactive: -0.013 with alvocidib; inactive: -0.078 with Tubastatin A; inactive: -0.049 in assay [1]; inactive: 0.127 with defactinib; inactive: -0.056 in [2]; inactive: 0.053 in the assay with encorafenib. Besides, the log2 fold change is inactive: -0.183 in assay [3], inactive: 0.039 in the assay with alisertib, inactive: -0.368 in assay [4] and inactive: 0.18 with gefitinib.

For ISOC1 (UniProt Q96CN7), the log2 fold change is inactive: 0.005 in the assay with alvocidib; inactive: 0.074 with Tubastatin A; inactive: 0.02 in [1]; inactive: 0.013 in the assay with defactinib; inactive: 0.03 in assay [2]; inactive: 0.017 with encorafenib. Moreover, the log2 fold change in assay [3] is inactive: -0.009; in the assay with alisertib, inactive: 0.033; in assay [4] it was inactive: 0.019; with gefitinib, inactive: -0.038.

For the target INTS5 (UniProt Q6P9B9), the log2 fold change with alvocidib was inactive: 0.038; in the assay with Tubastatin A, inactive: -0.055; in assay [1] it was inactive: 0.027; with defactinib it was inactive: 0.017; in [2], inactive: -0.047; with encorafenib, inactive: 0.02. Also, the log2 fold change in [3] is inactive: -0.259; with alisertib it was inactive: 0.028; in assay [4], inactive: 0.013; with gefitinib, inactive: 0.045.

For the target ITGB1BP1 (UniProt O14713), the log2 fold change in the assay with alvocidib is inactive: -0.02; in the assay with Tubastatin A, inactive: 0.09; in [1], inactive: -0.054; with defactinib, inactive: 0.016; in [2] it was inactive: 0.005; with encorafenib, inactive: -0.014. Moreover, the log2 fold change in assay [3] is inactive: 0.218; in the assay with alisertib, inactive: -0.005; in [4], inactive: -0.001; with gefitinib it was inactive: 0.096.

As for JMJD6 isoform 3 (UniProt Q6NYC1), the log2 fold change in the assay with alvocidib was inactive: 0.032; with Tubastatin A, inactive: -0.048; in assay [1], inactive: -0.015; with defactinib, inactive: 0.07; in [2], inactive: 0.008; with encorafenib it was inactive: 0.012. Moreover, the log2 fold change in assay [3] is inactive: -0.033; in the assay with alisertib, inactive: 0.019; in [4] it was inactive: -0.007; with gefitinib it was inactive: 0.023.

With IPO9 (UniProt Q96P70), the log2 fold change in the assay with alvocidib was inactive: -0.036; with Tubastatin A, inactive: 0.009; in assay [1] it was inactive: 0.033; with defactinib, inactive: -0.017; in assay [2] it was inactive: 0.007; with encorafenib, inactive: 0.021. Also, the log2 fold change in assay [3] is inactive: -0.008; with alisertib it was inactive: -0.005; in assay [4] it was inactive: 0.011; in the assay with gefitinib, inactive: 0.01.

In the case of ITGB3BP isoform 5 (UniProt Q13352), the log2 fold change was inactive: -0.084 with alvocidib and inactive: -0.081 in the assay with Tubastatin A.

With INTS9 (UniProt Q9NV88), the log2 fold change is inactive: -0.059 in the assay with alvocidib; inactive: 0.032 with Tubastatin A; inactive: 0.008 in assay [1]; inactive: -0.06 with defactinib; inactive: -0.007 in assay [2]; inactive: 0.022 in the assay with encorafenib. Moreover, the log2 fold change in [3] was inactive: -0.031; with alisertib, inactive: 0.022; in [4], inactive: -0.008; with gefitinib it was inactive: 0.018.

Consider ISCA1 isoform 2 (UniProt Q9BUE6), for which the log2 fold change is inactive: 0.103 with alvocidib; inactive: 0.023 with Tubastatin A; inactive: 0.037 in assay [1]; inactive: 0.092 with defactinib; inactive: 0.071 in [2]; inactive: -0.034 with encorafenib. Further, the log2 fold change was inactive: -0.003 in assay [3], inactive: -0.286 with alisertib, inactive: 0.075 in assay [4] and inactive: -0.025 in the assay with gefitinib.

In the case of JPT1 (UniProt Q9UK76), the log2 fold change with alvocidib was inactive: -0.021; in the assay with Tubastatin A, inactive: 0.019; in assay [1], inactive: 0.026; with defactinib, inactive: -0.01; in assay [2], inactive: 0.025; in the assay with encorafenib, inactive: -0.046. For the same target, the log2 fold change in [3] is inactive: -0.102; with alisertib, inactive: -0.046; in assay [4], inactive: 0.007; with gefitinib, inactive: -0.075.

For KATNA1 (UniProt O75449), the log2 fold change in the assay with alvocidib was inactive: -0.006; with Tubastatin A it was inactive: -0.021; in assay [1], inactive: -0.041; in the assay with defactinib it was inactive: -0.01; in [2], inactive: -0.065; in the assay with encorafenib, inactive: 0.051. Besides, the log2 fold change is inactive: -0.008 in [3], inactive: -0.031 with alisertib, inactive: 0.004 in [4] and inactive: 0.052 with gefitinib.

KCTD20 (UniProt Q7Z5Y7): the log2 fold change is inactive: 0.05 with alvocidib; inactive: -0.174 with Tubastatin A; inactive: 0.01 in [1]; inactive: -0.041 with defactinib; inactive: -0.025 in assay [2]; inactive: -0.165 in the assay with encorafenib. The log2 fold change was inactive: -0.058 in assay [3], inactive: -0.089 with alisertib, inactive: -0.095 in [4] and inactive: 0.035 with gefitinib.
